Test results published in the supplement of paper PMC6078165.
The reference is the same well before dosing, and untreated signal decays as well.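 Fibroblast labels name human fibroblasts: mostly primary ones from tissues such as uterus (C12385, HUF), lung (H6013), bone (Hs27A), adrenal (HADF) and skin (WS1), plus mammary HMF and breast cancer-associated Hs343T. The cancer cells are basal-like or mesenchymal-like triple-negative breast cancer lines. The paper calls a changed response a hit when it shifts by more than 3x the replicate standard deviation. The tissue of the other fibroblasts is not given here.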

Tested on: MDAMB468
Experiment: relative JC-1 red fluorescence (viability) vs pre-drug, coculture with fibroblast (fraction); higher = more viable cancer cells
Protocol: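 JC-1 labelled TNBC cells cocultured 1:1 (1,500 cells each) with CellTrace Violet stained primary or stromal fibroblasts in 384-well plates in FluoroBrite medium, treated with one of 42 anticancer drugs at 0.1, 1, 10 or 100 uM. JC-1 red fluorescence (mitochondrial integrity in cancer cells only) was read by plate reader every 8 h for 72 h. Values are normalised to each well's pre-drug value. The stock of one drug was tenfold lower, so its dose labels may be too high.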

CC(=O)O[C@@]12CO[C@@H]1C[C@H](O)[C@@]1(C)C(=O)[C@H](O)C3=C(C)[C@@H](OC(=O)[C@H](O)[C@@H](NC(=O)OC(C)(C)C)c4ccccc4)C[C@@](O)([C@@H](OC(=O)c4ccccc4)[C@H]21)C3(C)C [Docetaxel]
relative JC-1 red fluorescence
Conditions	8 h	16 h	24 h	32 h	40 h	48 h	56 h	64 h	72 h
0.1 µM, coculture fibroblast: C12385	0.864	0.798	0.778	0.728	0.684	0.671	0.627	0.619	0.622
0.1 µM, coculture fibroblast: H6013	0.8565	0.87871	0.837	0.831	0.784	0.789	0.763	0.755	0.692
0.1 µM, coculture fibroblast: H6019	0.81746	0.803	0.773	0.732	0.716	0.72	0.679	0.661	0.66
0.1 µM, coculture fibroblast: H6076	0.9122	0.958	0.8893	0.858	0.787	0.76	0.692	0.6582	0.674
0.1 µM, coculture fibroblast: H6231	0.828	0.909	0.81	0.821	0.752	0.726	0.67	0.633	0.636
0.1 µM, coculture fibroblast: HADF	0.879	0.8382	0.787	0.774	0.717	0.703	0.645	0.636	0.576
0.1 µM, coculture fibroblast: HCFa	0.845	0.827	0.768	0.716	0.652	0.639	0.575	0.538	0.48
0.1 µM, coculture fibroblast: HCPF	0.893	0.915	0.8786	0.89	0.792	0.764	0.69	0.666	0.656
0.1 µM, coculture fibroblast: HHSteC	0.865	0.8449	0.809	0.756	0.702	0.702	0.619	0.5843	0.52268
0.1 µM, coculture fibroblast: HMF	0.859	0.989	0.893	0.857	0.7571	0.7229	0.644	0.612	0.581
0.1 µM, coculture fibroblast: HPFa	0.949	0.902	0.859	0.795	0.774	0.765	0.699	0.693	0.615
0.1 µM, coculture fibroblast: HUF	0.9076	0.805	0.728	0.648	0.5954	0.569	0.5177	0.49724	0.4822
0.1 µM, coculture fibroblast: Hs5	0.888	0.973	0.935	0.91	0.825	0.767	0.698	0.663	0.673
0.1 µM, coculture fibroblast: Hs27A	0.858	0.82	0.756	0.748	0.678	0.6704	0.6436	0.6294	0.59
0.1 µM, coculture fibroblast: Hs343T	0.8673	0.937	0.867	0.8414	0.7538	0.726	0.665	0.639	0.604
0.1 µM, coculture fibroblast: WS1	0.83	0.7616	0.699	0.632	0.563	0.527	0.494	0.468	0.46
1 µM, coculture fibroblast: C12385	0.88	0.849	0.782	0.7289	0.676	0.672	0.633	0.607	0.598
1 µM, coculture fibroblast: H6013	0.8947	0.8394	0.834	0.817	0.7869	0.8002	0.782	0.7781	0.722
1 µM, coculture fibroblast: H6019	0.859	0.8011	0.7984	0.77037	0.7509	0.754	0.707	0.698	0.694
1 µM, coculture fibroblast: H6076	0.925	0.933	0.887	0.912	0.834	0.832	0.788	0.76	0.827
1 µM, coculture fibroblast: H6231	0.825	0.8901	0.801	0.789	0.7024	0.686	0.6279	0.6104	0.609
1 µM, coculture fibroblast: HADF	0.932	0.844	0.849	0.824	0.78	0.769	0.729	0.711	0.644
1 µM, coculture fibroblast: HCFa	0.881	0.832	0.781	0.775	0.705	0.702	0.639	0.603	0.541
1 µM, coculture fibroblast: HCPF	0.902	0.952	0.847	0.855	0.7769	0.749	0.689	0.676	0.665
1 µM, coculture fibroblast: HHSteC	0.931	0.874	0.856	0.814	0.774	0.777	0.699	0.678	0.62
1 µM, coculture fibroblast: HMF	0.852	0.938	0.872	0.847	0.765	0.745	0.673	0.645	0.626
1 µM, coculture fibroblast: HPFa	0.952	0.94277	0.892	0.839	0.813	0.827	0.765	0.759	0.688
1 µM, coculture fibroblast: HUF	0.908	0.802	0.728	0.648	0.587	0.567	0.515	0.494	0.474
1 µM, coculture fibroblast: Hs5	0.805	0.975	0.934	0.914	0.84	0.793	0.745	0.701	0.727
1 µM, coculture fibroblast: Hs27A	0.891	0.8406	0.849	0.859	0.826	0.833	0.825	0.838	0.78
1 µM, coculture fibroblast: Hs343T	0.852	0.86	0.84	0.853	0.769	0.752	0.699	0.673	0.676
1 µM, coculture fibroblast: WS1	0.8735	0.796	0.7381	0.677	0.638	0.62	0.593	0.577	0.581
